Test results taken from article PMC7002685, “Inhibition of vascular calcification by inositol phosphates derivatized with ethylene glycol oligomers” (Nature Communications, 2020).
Values joined by “and” are separate entries in the source; they are usually repeats but may differ in a detail not shown here. Equal values may be shown once. Further values from the same series stand in other lists.

Legend:
[1] = PK s.c. in healthy and adenine/high-phosphate-diet (uremic) rats; type: in vivo, male Sprague-Dawley rats; conditions: individual rats
Protocol: For many drugs, the PK profile depends on the patient’s renal status. Therefore, (OEG2)2-IP4 PK profile was also determined in an adenine and high-phosphate-diet-induced rat model of uremia, in which the compound was administered after serum creatinine levels had increased by fourfold relative to baseline (Fig. 4g, h). […] Similar results were observed following s.c. administration (Supplementary Table 5).
To study PK in uremic animals, male Sprague-Dawley rats (Charles River Laboratories, L’Arbresle, France) were housed two per cage with free access to water and standard chow (rat/mouse maintenance diet, SSNIFF Spezialdiäten GmbH, Soest, Germany) and submitted to a 12-h light/dark cycle. Animals were fed a low-protein (2.5%) diet containing high phosphorus (1.3% phosphorus and 0.7% calcium) and 0.3% adenine to induce uremia (SSNIFF Spezialdiäten GmbH). Control animals were fed same diet but without adenine. Every 10 days, a sample of blood was punctured at the tail vein of each animal. Serum and urine creatinine, calcium, and phosphorus were then assessed using standard colorimetric biochemistry analysis (Cobas Mira, Roche, Basel, Switzerland). When a fourfold increase of creatinine was observed compared to control, the rat was considered uremic and suitable for PK experiments. The method was validated using eight animals on control- and adenine-supplemented diet respectively. For PK studies, on the morning of the experimental day, a catheter was inserted in the right carotid artery under halothane anesthesia. Subsequently, rats were allowed to recover for 3 h and uremic and non-uremic rats, respectively, were assigned to three groups of six rats each. […] Blood aliquots were drawn after drug administration, centrifuged, decanted, and stored at −80 °C until serum drug quantification by LC-MS, as well as analysis of serum creatinine, calcium, and phosphorus (Cobas Mira).
(§1) The bioanalytical method for (OEG2)2-IP4 in rat plasma was further optimized, qualified, and applied to the comparative PK study in adenine and high-phosphate diet-induced VC vs. vitamin D-induced VC animals. The LC-MS/MS analyses were carried out using a Dionex Ultimate RSLC ultra-high-pressure liquid chromatography (UHPLC) system (Thermo Fisher Scientific) coupled with a TSQ Quantiva^TM triple quadrupole mass spectrometer. The samples were stored at 5 °C in the autosampler prior to and during the analyses. […] Gradient elution (solvent A, 20 mM ammonium acetate in water (pH 5); solvent B, ACN) was used according to the program reported in Supplementary Table 18. The injection volume was 10 µL. MS/MS parameters (MRM acquisition, cycle time 0.2 s) for (OEG2)2-IP4 are reported in Supplementary Table 19 and the ESI source, working in negative ionization mode, applied the following parameters: static spray voltage 3000 V ion transfer tube and vaporizer temperatures at 400 and 100 °C, respectively; sheath and auxiliary gas (nitrogen) flow rates at 80 and 3 (arbitrary units). For the quantitative determination in rat plasma, product ion m/z 158.9 was selected because it provided the best sensitivity and selectivity. Calibration curve and quality control samples were prepared by adding 2 μL of working solution to 38 μL rat blank K3EDTA plasma (Biochemed, Winchester, VA) and precipitating plasma protein by addition of 120 μL of MeOH including internal standard OEG11-IP5. Samples were vortexed 1 min and centrifuged at (22,000 × g, 4 °C, 10 min). Supernatants (90 μL) were then transferred into a glass vial with insert and injected onto LC-MS/MS system. Both in adenine and high-phosphate diet-induced VC and vitamin D-induced VC rat PK samples were prepared for analysis in an analogous manner as done for spiked samples (assay volume 40 μL). The LLOQ and LOD in rat plasma for (OEG2)2-IP4 were 50 and 10 ng/mL, respectively. The ULOQ and detection was 50,000 ng/mL.

[2] = PK in healthy rats, s.c.; type: in vivo, male Sprague-Dawley rats; conditions: 10 mg/kg s.c., unit not given, listed as INS-3001
[3] = PK s.c. in rats with vitamin D and warfarin-induced VC; type: in vivo, rat; conditions: 50 mg/kg s.c., unit not given
Protocol: Moreover, the systemic exposure of the compound after s.c. administration was assessed in rats with VC (Fig. 4f, Supplementary Table 3).
To study PK in rats presenting with VC, plasma samples were used from a sub-group of the study where calcification was induced with vitamin D and warfarin treatment.
as §1

[4] = system: transformation of CPP1 to CPP2 in pooled human serum; assay: In vitro serum calcification propensity (T50) screening assay; type: biochemical; set-up: key: T50 in minutes (time to 50% CPP phase transition)
Protocol: The compounds were ranked for calcification inhibition activity using a nanoparticle-based test, developed for risk stratification, which measures the propensity for calcification in patient serum. […] The time, after which 50% of CPP phase transition occurred (T50), was assessed by time-resolved spectrophotometry at 550 nm (Supplementary Fig. 1a).
The screening assay was performed as described previously. In brief, pooled human serum (H4522, Sigma-Aldrich) stored at −20 °C was thawed at 37 °C, centrifuged (10,000 × g, and 4 °C, 30 min) (5427R, Eppendorf, Switzerland), and sterile filtered (0.22 μm filter, Millipore, Merck KGaA) to remove potential cryoprecipitates (cleared human serum). The calcium solution was 40 mM CaCl2 (102382, Merck KGaA) in HBS, pH 7.4 (RT) (100 mM HEPES (H3375, Sigma-Aldrich) and 140 mM NaCl (1734712, Fisher Scientific, Hampton, NH, USA)). […] All salt solutions and buffers were double sterile filtered (0.22 µm) and pre-warmed to 37 °C prior to use. […] The plate was sealed with an adhesive film and the absorption at 550 nm was measured every 3 min with 1 min in-between shaking for a total of 300 cycles at 37 °C using the infinite M200 microplate reader (Tecan, Männedorf, Switzerland). An A550 vs. time graph was generated and T50 (min) (time at half-maximum transition from CPP1 to CPP2) values were derived by sigmoidal curve fit using Prism 8 (nonlinear regression in the log(agonist) vs. response–variable slope (four parameter mode) using the robust fit fitting method, GraphPad Software, San Diego, CA, USA). Activities between compounds were compared by generating a T50 (min) vs. concentration (µM) graph, calculating nonlinear regression and deriving the concentration required to delay T50 to 350 min (c350) using a standard equation for the dose–response curve, Eq. (1), whereby x = [compound], y = time (min), bottom = baseline response, top = maximum response, T50 = [drug] that leads to half-maximum response, and the hill slope is a factor that describes the steepness of the curve.1 y= bottom+top - bottom/1+T50/x^hillslope.

COCCOCCO[C@@H]1[C@@H](OP(=O)(O)O)[C@H](OCCOCCOC)[C@@H](OP(=O)(O)O)[C@@H](OP(=O)(O)O)[C@H]1OP(=O)(O)O [(OEG2)2-IP4, 4,6-Di-O-(methoxy-diethyleneglycol)-myo-inositol-1,2,3,5-tetrakis(phosphate)]
plasma concentration (Figure 4h) ([1]; Healthy, Time 5 min): 10.8247 and 14.4267 and 10.1109 and 10.4757 and 9.587 and 7.707
plasma concentration (Figure 4h) ([1]; Healthy, Time 0.25 h): 12.5969
plasma concentration (Figure 4h) ([1]; Healthy, Time 0.5 h): 12.0842 and 17.8362 and 7.972 and 7.101 and 10.7529 and 6.619
plasma concentration (Figure 4h) ([1]; Healthy, Time 1 h): 14.859 and 15.0529 and 3.358 and 3.315 and 4.189 and 3.695
plasma concentration (Figure 4h) ([1]; Healthy, Time 2 h): 5.516 and 9.679 and 0.6721 and 0.7942 and 1.077 and 1.0197
plasma concentration (Figure 4h) ([1]; Healthy, Time 4 h): 1.074 and 2.423 and 0.181 and 0.2442 and 0.2082 and 0.1436
plasma concentration (Figure 4h) ([1]; Healthy, Time 5 h): 1.449 and 0.1379 and 0.1235 and 0.1092 and 0.07755
plasma concentration (Figure 4h) ([1]; Healthy, Time 6 h): 0.3835 and 0.8689 and 0.09479 and 0.1135 and 0.09335 and 0.05027
plasma concentration (Figure 4h) ([1]; Uremic, Time 5 min): 3.569 and 3.0031 and 5.041 and 3.385
plasma concentration (Figure 4h) ([1]; Uremic, Time 0.25 h): 9.98 and 7.361 and 8.303
plasma concentration (Figure 4h) ([1]; Uremic, Time 0.5 h): 13.3466 and 9.674 and 7.336 and 6.617 and 6.881
plasma concentration (Figure 4h) ([1]; Uremic, Time 1 h): 9.92 and 14.2041 and 9.624 and 5.504 and 17.042 and 11.1047
plasma concentration (Figure 4h) ([1]; Uremic, Time 2 h): 3.592 and 8.353 and 8.923 and 5.504 and 9.903 and 5.99
plasma concentration (Figure 4h) ([1]; Uremic, Time 3 h): 1.439 and 5.9387 and 3.026
plasma concentration (Figure 4h) ([1]; Uremic, Time 4 h): 0.8316 and 4.9391 and 5.0181 and 3.583 and 2.826 and 2.029
plasma concentration (Figure 4h) ([1]; Uremic, Time 5 h): 3.697 and 3.167 and 1.018
plasma concentration (Figure 4h) ([1]; Uremic, Time 6 h): 0.3978 and 2.859 and 2.812 and 2.577 and 0.4567 and 0.5946
plasma concentration ([2]; 5 min, individual rats Fig. 4c): 5.25 and 4.88 and 3.96
plasma concentration ([2]; 0.25 h): 11.57 and 10.44 and 9.75
plasma concentration ([2]; 0.5 h): 11.38 and 11.68 and 13.4
plasma concentration ([2]; 1 h): 8.31 and 7.96 and 7.74
plasma concentration ([2]; 2 h): 3.78 and 4.11 and 3.83
plasma concentration ([2]; 2.5 h): 1.48 and 1.72 and 1.16
plasma concentration ([2]; 4 h): 0.41 and 0.73 and 0.37
plasma concentration ([2]; 6 h): 0.11 and 0.13 and 0.12
plasma concentration ([3]; calcification, time 0): 0.1 and 0.09
plasma concentration ([3]; calcification, time 0.5): 29.92 and 33.93 and 44.72 and 24.81
plasma concentration ([3]; calcification, time 1): 31.77 and 35.22 and 43.64 and 22.41
plasma concentration ([3]; calcification, time 2): 21.96 and 26.6 and 34.67 and 22.63
plasma concentration ([3]; no calcification, time 0, individual rats Fig. 4f): 0.11 and 0.07 and 0.05 (2×)
plasma concentration ([3]; no calcification, time 0.5): 49.46 and 54.81 and 36.19 and 53.17
plasma concentration ([3]; no calcification, time 1): 31.67 and 36.63 and 38.99 and 33.67
plasma concentration ([3]; no calcification, time 4): 5.6 and 4.16 and 4.71 and 2.98
plasma concentration ([3]; no calcification, time 6): 1.4 and 1.5 and 1.1 and 1.12

O=P(O)(O)O[C@H]1[C@H](OP(=O)(O)O)[C@@H](OP(=O)(O)O)[C@H](OP(=O)(O)O)[C@@H](OP(=O)(O)O)[C@H]1OP(=O)(O)O [IP6, myo-Inositol hexakisphosphate]
T50 ([4]; 1 µM, individual experiments, Fig. 2a): 205.833 min and 241.367 min and 211.033 min and 236.6 min and 219.333 min and 246.167 min and 222.067 min and 238.467 min and 218.333 min and 214.533 min and 215.3 min and 189.27 min and 219.5 min and 285.033 min and 217.167 min and 213.067 min and 193.5 min and 255.733 min and 223.95 min and 207.467 min and 150.1 min and 195.15 min and 221.567 min and 215.367 min and 214 min and 248.3 min and 238.433 min
T50 ([4]; 50 µM, individual experiments, Fig. 2a): 408.6 min and 411.9 min
T50 ([4]; concentration 4.1 μM, one value per experiment): 217.4 and 239.4 and 277.7 and 241.067
T50 ([4]; concentration 5 μM, one value per experiment): 249.8 and 203.1 and 210
T50 ([4]; concentration 8.2 μM, one value per experiment): 256.2
T50 ([4]; concentration 15 μM, one value per experiment): 257.433 and 252.1 and 309.067 and 247.867
T50 ([4]; concentration 20 μM, one value per experiment): 287.15 and 265.7 and 269.8
